From paper PMC3369926
No constants are given. Whether binding was seen depends on the method and setting. For part of these data: In cells and extracts the contact can be indirect. Some results given as binding are weak or reduced against the parent protein; the word gives no strength. Each block holds one substance with its values, some of them ahead of it.

Chains of the proteins cited; added tags and fusions are not shown. Lines headed by an entry give the natural chain unless they say otherwise; changes in a name come on top. A line that says so, or that is headed by a name, gives the form on record, which may keep a tag or linker.
UniProt Q99836: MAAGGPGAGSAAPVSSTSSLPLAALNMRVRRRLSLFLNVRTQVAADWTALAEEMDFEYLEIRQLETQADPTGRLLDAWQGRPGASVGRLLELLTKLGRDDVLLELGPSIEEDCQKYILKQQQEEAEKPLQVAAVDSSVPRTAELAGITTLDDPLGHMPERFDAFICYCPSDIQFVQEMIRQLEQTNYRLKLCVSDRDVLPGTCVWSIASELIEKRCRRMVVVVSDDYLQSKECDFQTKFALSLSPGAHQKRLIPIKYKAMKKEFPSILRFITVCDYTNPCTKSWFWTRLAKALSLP
GST-MyD88-TIR R196A-R288A (148-296) (Q99836, form named): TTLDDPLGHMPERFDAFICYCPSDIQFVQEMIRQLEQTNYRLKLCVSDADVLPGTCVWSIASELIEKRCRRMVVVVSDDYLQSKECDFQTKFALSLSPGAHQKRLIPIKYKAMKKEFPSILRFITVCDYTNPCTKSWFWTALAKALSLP
UniProt Q86XR7: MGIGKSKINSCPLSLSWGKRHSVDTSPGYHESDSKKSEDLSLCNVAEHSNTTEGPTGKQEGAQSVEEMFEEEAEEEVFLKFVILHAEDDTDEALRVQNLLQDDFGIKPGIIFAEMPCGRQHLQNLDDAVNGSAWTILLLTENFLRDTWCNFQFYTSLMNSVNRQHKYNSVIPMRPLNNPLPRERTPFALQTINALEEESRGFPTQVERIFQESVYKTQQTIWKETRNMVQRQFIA

Tests used:
[1] = target: Myc-tagged MyD88 (full-length), wild type (UniProt Q99836); test: co-IP; HEK293T co-transfected with IL-18Rβ, Myc-MyD88 (wild or R196A-R288A) and FLAG-TRAM; with or without IL-18 (10 ng/mL; 30 to 120 min); lysate in Tris-HCl pH 7.5, 10 mM NaCl, 10 mM EDTA, 0.5% Triton-X100; IP with anti-Myc or anti-FLAG M2 and Protein G MicroBeads; western blot
[2] = target: FLAG-tagged TRAM (full-length) (human) (UniProt Q86XR7); test: as above
[3] = target: GST-MyD88-TIR R196A-R288A (148-296) (UniProt Q99836); test: pull-down; GST fusion proteins held on Glutathione Sepharose 4B, three hours at 4°C; four washes with 20 mM potassium phosphate (pH 6.0), 100 mM KCl, 0.1 mM EDTA, 10 mM DTT, 0.5% Triton X100; SDS-PAGE with Coomassie staining; in triplicate; both purified

binding [1]: binds
Substance: FLAG-tagged TRAM (full-length) (from UniProt Q86XR7 1-235)

binding [2]: binds
Substance: Myc-tagged MyD88 (full-length), wild type (from UniProt Q99836 1-296)

binding [3]: no binding
Substance: TRAM-TIR (amino acid residues 66-235) (from UniProt Q86XR7 66-235) (domain or fragment)
